Structures can show the parent of a compound that is named as a salt. Where two headings read alike, the source gives them in different places. About 95 (3%) of roughly 3,300 compounds showed an effect of 50% or more. This is one part of the list.

This assay deals with HCoV-229E. Also noted: species or system Huh-7; HTS, protection from HCoV-229E induced cell death, luminescent cell viability (CellCounting-Lite 2.0), inhibition rate. As to conditions: 24 h post infection, 1 h compound pre-incubation, 10 µM, inhibitor.

For the compound `CC(=O)[C@H]1CC[C@H]2[C@@H]3CCC4=CC(=O)CC[C@]4(C)[C@H]3CC[C@]12C` [Progesterone], the “229E Inhibition rate” value came out at 0%. Same read-out and setting: the value for `COc1ccc([C@H]2OC[C@H]3[C@@H]2CO[C@H]3c2ccc(O[C@@H]3O[C@H](CO)[C@@H](O)[C@H](O)[C@H]3O)c(OC)c2)cc1OC` [Phillyrin] was 0%; that for `Cc1ccc(C(N)=O)cn1` [6-Methylnicotinamide] was 13.1%. In the case of `CC(C)C[C@@](O)(CC(=O)OCc1ccc(O[C@@H]2O[C@H](CO)[C@@H](O)[C@H](O)[C@H]2O)cc1)C(=O)OCc1ccc(O[C@@H]2O[C@H](CO)[C@@H](O)[C@H](O)[C@H]2O)cc1` [Militarine], the “229E Inhibition rate” value was determined as 10.3%. In the case of `OC[C@H]1O[C@@](CO)(OC[C@@]2(O[C@H]3O[C@H](CO)[C@@H](O)[C@H](O)[C@H]3O)O[C@H](CO)[C@@H](O)[C@@H]2O)[C@@H](O)[C@@H]1O` [1-Kestose], the “229E Inhibition rate” value is 18.6%. Turning to `COc1ccc([C@@H]2CC(=O)c3c(O)cc(O[C@@H]4O[C@H](CO[C@@H]5O[C@@H](C)[C@H](O)[C@@H](O)[C@H]5O)[C@@H](O)[C@H](O)[C@H]4O)cc3O2)cc1` [Didymin], the “229E Inhibition rate” value was found to be 9.3%. For the compound `C[N+](C)(C)CCCCC(=O)[O-]` [delta-Valerobetaine], the “229E Inhibition rate” value was 15.5%. With `CN(C)[C@@H]1C(O)=C(C(N)=O)C(=O)[C@@]2(O)C(O)=C3C(=O)c4c(O)cccc4[C@@](C)(O)[C@H]3[C@H](O)[C@@H]12` [Oxytetracycline], where the note is “229E Inhibition rate, 24 h”, the “229E Inhibition rate” value came to 35.1%. The same measure, in the same setting: under `O=C[C@H](O)[C@@H](O)[C@H](O)CO` [Xylose] stands 21.1%.

`O=C(O)C(O)Cc1ccc(O)c(O)c1` (centres unmarked) [Danshensu (sodium salt)]: the “229E Inhibition rate” value was found to be 10.9%. On the same count and under the same terms, under `CSC(=O)OCC1=C[C@@H]2OC(=O)C3=CO[C@@H](O[C@@H]4O[C@H](CO)[C@@H](O)[C@H](O)[C@H]4O)[C@H]1[C@@H]32` [Paederoside] stands 7.5%.

On to `Cc1cc(=O)oc2cc(O)c(O)cc12` [4-Methylesculetin], for which the “229E Inhibition rate” value is 17.7%. For `N[C@@H](Cc1cc(I)c(Oc2cc(I)c(O)c(I)c2)c(I)c1)C(=O)O` [L-Thyroxine], the “229E Inhibition rate” value is on record as 13.8%. Still for that read-out and setting: under `CC(=O)OCC1=C[C@H](O)[C@@H]2C(C(=O)O)=CO[C@@H](O[C@@H]3O[C@H](CO)[C@@H](O)[C@H](O)[C@H]3O)[C@H]12` [Asperulosidic Acid] stands 10.9%; under `CC(C)=CCC[C@]1(C)C=Cc2c(O)c3c(c(CC=C(C)C)c2O1)O[C@]12C(=C[C@@H]4C[C@H]1C(C)(C)O[C@@]2(C/C=C(/C)C(=O)O)C4=O)C3=O` [Gambogic Acid], 0.4%; under `CC(C)(O)[C@@H]1Cc2c(cc3oc(CO)cc(=O)c3c2O)O1` [Angelicain], 9.5%. On the same count and under the same terms, under `O=C1Nc2ccccc2/C1=C1/Nc2ccccc2C1=O` [Indirubin] stands 35.2%.

Take `CC(C)c1ccc2c(c1)CC[C@H]1[C@](C)(C(=O)O)CCC[C@]21C` [Dehydroabietic acid]: the “229E Inhibition rate” value was 34%. Still for that read-out and setting: under `CC(=O)c1c(C)c([N+](=O)[O-])c(C(C)(C)C)c([N+](=O)[O-])c1C` [Musk ketone] stands 24.2%; under `COc1ccc(-c2oc3c(CC=C(C)C)c(O)cc(O)c3c(=O)c2O[C@@H]2O[C@@H](C)[C@H](O)[C@@H](O)[C@H]2O[C@@H]2O[C@@H](C)[C@H](O)[C@@H](O)[C@H]2O)cc1` [2''-O-Rhamnosylicariside II], 18.9%; under `O=c1ccc2cc(O)c(O[C@@H]3O[C@H](CO)[C@@H](O)[C@H](O)[C@H]3O)cc2o1` [Cichoriin], 20.6%. With `COc1cc(OC)cc(OC)c1` [1,3,5-Trimethoxybenzene], the “229E Inhibition rate” value came to 55.2%. `C=C(C)[C@H](CC=C(C)C)Cc1c(O)cc(O)c2c1O[C@H](c1ccc(O)cc1O)CC2=O` [sophoraflavanone G]: the “229E Inhibition rate” value was found to be 75.7%. Still for that read-out and setting: under `Oc1ccc(OC2CCCCO2)cc1` (centres unmarked) [Deoxyarbutin] stands 23.7%; under `CNCc1ccccc1` [N-Methylbenzylamine], 21.7%. With `C=C1C[C@@]23CC[C@H]4[C@@](C)(CCC[C@@]4(C)C(=O)O)[C@@H]2CC[C@]1(O)C3` [Steviol], the “229E Inhibition rate” value stood at 19%. For `CC[C@@H](N)C(=O)O` [D(-)-2-Aminobutyric acid], the “229E Inhibition rate” value amounted to 10.6%. Same read-out and setting: the value for `CCc1c2c(nc3ccccc13)-c1cc3c(c(=O)n1C2)COC(=O)[C@]3(O)CC` [7-Ethylcamptothecin] was 3.6%. As to `O=C1O[C@H]([C@H](O)CO)C(O)=C1O` [Sodium erythorbate], the “229E Inhibition rate” value (229E Inhibition rate, 24 h) was determined as 31.1%. For `C=CC1=C(C)c2cc3[nH]c(cc4nc(cc5[nH]c(cc1n2)c(C)c5CCC(=O)O)C(CCC(=O)O)=C4C)c(C)c3C=C` [Protoporphyrin IX], the “229E Inhibition rate” value is 14.7%.

With `CC(=O)O[C@H]1CC(=O)OC(C)(C)[C@@H]2CC(=O)[C@]3(C)[C@H](CC[C@@]4(C)[C@H](c5ccoc5)OC(=O)[C@H]5O[C@]543)[C@@]12C` [Nomilin], the “229E Inhibition rate” value is 15.5%. The same measure, in the same setting: the value for `CCCCCCCC/C=C\CCCCCCCC(=O)OC[C@H](COP(=O)(O)O)OC(=O)CCCCCCC/C=C\CCCCCCCC` [1,2-Dioleoyl-sn-glycero-3-phosphate, sodium salt] was 6.8%. As for `CCN(CC)c1ccc2cc(-c3nc4ccccc4s3)c(=O)oc2c1` [Coumarin 6], the “229E Inhibition rate” value was found to be 9.6%. The same measure, in the same setting: under `C=C(C)[C@@H]1CC[C@]2(C(=O)O)CC[C@]3(C)[C@H](CC[C@@H]4[C@@]5(C)CCC(=O)C(C)(C)[C@@H]5CC[C@]43C)[C@@H]12` [Betulonic acid] stands 3.5%. As for `N[C@H](CO)Cc1cnc[nH]1` [L-Histidinol (dihydrochloride)], the “229E Inhibition rate” value is listed as 0%. Still for that read-out and setting: the value for `CC(C)=CCC[C@](C)(O[C@@H]1O[C@H](CO)[C@@H](O)[C@H](O)[C@H]1O)[C@H]1CC[C@]2(C)[C@@H]1[C@H](O)C[C@@H]1[C@@]3(C)CC[C@H](O)C(C)(C)[C@@H]3[C@@H](O)C[C@]12C` [Ginsenoside F1] was 20.9%. Regarding `Nc1ncnc2c1ncn2[C@@H]1O[C@H](CO)[C@@H](O)[C@H]1O` [Adenosine], the “229E Inhibition rate” value was found to be 8.7%. The same measure, in the same setting: under `O=C1C[C@@H](c2ccc(O)cc2)Oc2cc(O)ccc21` [Liquiritigenin] stands 20.8%; under `CC1=C(CC[C@H](C)CO[C@@H]2O[C@H](CO)[C@@H](O)[C@H](O)[C@H]2O)O[C@H]2C[C@H]3[C@@H]4CC[C@@H]5C[C@@H](O[C@@H]6O[C@H](CO)[C@@H](O)[C@H](O)[C@H]6O[C@@H]6O[C@H](CO)[C@@H](O)[C@H](O)[C@H]6O)CC[C@]5(C)[C@H]4CC[C@]3(C)[C@@H]12` [Timosaponin C], 28.7%; under `C[n+]1cc2c3c(ccc2c2ccc4cc5c(cc4c21)OCO5)OCO3` [Sanguinarine (chloride)], 6.4%. Still for that read-out and setting: the value for `O=C(O)c1ccccn1` [PCL 016] was 5.4%; that for `CC(=O)N[C@@H](CCCN)C(=O)O` [N-Acetylornithine] was 0%; that for `C[C@H]1CC[C@@H]2N(C1)C[C@H]1[C@@H]3C[C@H]4[C@@H](CC(=O)[C@H]5C[C@@H](O[C@@H]6O[C@H](CO)[C@@H](O)[C@H](O)[C@H]6O)CC[C@@]54C)[C@@H]3CC[C@@H]1[C@]2(C)O` [Edpetiline] was 11.7%. Still for that read-out and setting: the value for `C[C@@H]1O[C@@H](Oc2cc(O)c3c(c2)O[C@H](c2ccc(O)c(O)c2)[C@@H](O)C3=O)[C@H](O)[C@H](O)[C@H]1O` [Taxifolin 7-O-rhamnoside] was 9.6%; that for `CCCCCCCCCCCCCCCC(=O)NCc1ccccc1` [N-Benzylpalmitamide] was 13.8%. On to `COc1c(/C=C/C(=O)c2ccc(O)c(O)c2)ccc(O)c1O` [Tetrahydroxymethoxychalcone], for which the “229E Inhibition rate” value is given as 20.6%. On the same count and under the same terms, the value for `COc1cc(-c2oc3cc(O)cc(O)c3c(=O)c2O[C@@H]2O[C@H](CO[C@@H]3O[C@@H](C)[C@H](O)[C@@H](O)[C@H]3O)[C@@H](O)[C@H](O)[C@H]2O)ccc1O` [Narcissin] was 14.4%; that for `CCCOC(=O)c1cc(O)c(O)c(O)c1` [Propyl gallate] was 8.9%; that for `N[C@@H]1CONC1=O` [D-Cycloserine] was 10.6%.

Consider `C=C1C[C@@]2(O)O[C@@]3(C[C@H]2C(C)C)[C@@H](C)CC[C@@H]13` [Curcumol], for which the “229E Inhibition rate” value worked out at 11.7%. Take `CC(C)CC(=O)NCC(=O)O` [N-Isovaleroylglycine]: the “229E Inhibition rate” value was 9.6%.

Take `COc1c2c(cc3c1-c1c(cc4c(c1OC)OCO4)C[C@H](C)[C@H](C)C3)OCO2` [Schisandrin C]: the “229E Inhibition rate” value amounted to 52.7%.

For `O=C(O)/C=C/c1ccc(O)c(O)c1` [Caffeic acid], the “229E Inhibition rate” value came to 23.5%.

`CC(C)(COP(=O)(O)OP(=O)(O)OC[C@H]1O[C@@H](n2cnc3c(N)ncnc32)[C@H](O)[C@@H]1OP(=O)(O)O)[C@@H](O)C(=O)NCCC(=O)NCCS` [Coenzyme A]: the “229E Inhibition rate” value turned out to be 10.1%. On the same count and under the same terms, under `COc1cc([C@H]2OC[C@H]3[C@@H]2CO[C@@H]3c2ccc(O[C@@H]3O[C@H](CO)[C@@H](O)[C@H](O)[C@H]3O)c(OC)c2)ccc1O[C@@H]1O[C@H](CO)[C@@H](O)[C@H](O)[C@H]1O` [Pinoresinol Diglucoside] stands 23.6%; under `O=C1N[C@@H](Cc2ccccc2)C(=O)N2CCC[C@@H]12` [Cyclo(L-Phe-L-Pro)], 11.1%. Still for that read-out and setting: the value for `C[C@@H]1O[C@@H](O)[C@H](O)[C@H](O)[C@H]1O` [α-L-Rhamnose monohydrate] was 15.5%.

Consider `Nc1ncc[nH]1` [2-Aminoimidazole], for which the “229E Inhibition rate” value is recorded as 21.7%.

As to `Cc1ncc(CO)c(C(=O)O)c1O` [4-Pyridoxic acid], the “229E Inhibition rate” value is reported as 22.7%.

The values above are taken from PMC12431657, “Discovery and mechanistic insights of dibenzoylmethane as a broad spectrum inhibitor of coronavirus” (PLOS Pathogens, 2025).
